# The list shows a part of the results. Repeats are few or missing, and single values can be far off.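 The apoptosis fraction was the count of cleaved-PARP antibody-stained nuclei relative to all DNA-stained nuclei, imaged in 1,536-well plates. Screening doses were set so most cells survived, and baseline and induced cleaved-PARP levels vary greatly across cell lines.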
# How the values were obtained:
# Experiment in all cases: cleaved PARP positive nuclei fraction relative to DMSO control; melanoma cells; higher = more apoptosis
# Details in all cases: library dose: low library concentration; 72 h
# MZ2-MEL = tested on: MZ2-MEL
# MeWo = tested on: MeWo
# RPMI7951 = tested on: RPMI7951
# RVH-421 = tested on: RVH-421
# SkMel28 = tested on: SkMel28
# SkMel2 = tested on: SkMel2
# SkMel30 = tested on: SkMel30
# SkMel5 = tested on: SkMel5
# UACC257 = tested on: UACC257
# UACC62 = tested on: UACC62
# WM115 = tested on: WM115
# WM1716 = tested on: WM1716
# WM1745 = tested on: WM1745
# WM3526 = tested on: WM3526
# WM3619 = tested on: WM3619
# WM451Lu = tested on: WM451Lu
Compound,cleaved PARP positive nuclei fraction (MZ2-MEL) [%],cleaved PARP positive nuclei fraction (MeWo) [%],cleaved PARP positive nuclei fraction (RPMI7951) [%],cleaved PARP positive nuclei fraction (RVH-421) [%],cleaved PARP positive nuclei fraction (SkMel28) [%],cleaved PARP positive nuclei fraction (SkMel2) [%],cleaved PARP positive nuclei fraction (SkMel30) [%],cleaved PARP positive nuclei fraction (SkMel5) [%],cleaved PARP positive nuclei fraction (UACC257) [%],cleaved PARP positive nuclei fraction (UACC62) [%],cleaved PARP positive nuclei fraction (WM115) [%],cleaved PARP positive nuclei fraction (WM1716) [%],cleaved PARP positive nuclei fraction (WM1745) [%],cleaved PARP positive nuclei fraction (WM3526) [%],cleaved PARP positive nuclei fraction (WM3619) [%],cleaved PARP positive nuclei fraction (WM451Lu) [%]
"N#CC[C@H](C1CCCC1)n1cc(-c2ncnc3[nH]ccc23)cn1 [ruxolitinib] + O=c1cc(-c2cccc3c2Sc2ccccc2S3)oc(N2CCOCC2)c1 [KU55933] (first compound 1 µM, partner dose 1 µM)",235,192,63.7,101,160,84.8,91.5,159,72.1,66.6,51.5,93.3,89.2,62.8,90.1,126
"O=C(/C=C/c1cccnc1)NCCCCC1CCN(C(=O)c2ccccc2)CC1 + Cn1cncc1[C@@](N)(c1ccc(Cl)cc1)c1ccc2c(c1)c(-c1cccc(Cl)c1)cc(=O)n2C [tipifarnib] (first compound 0.01 µM, partner dose 0.01 µM)",506,39.1,252,147,96,805,72.3,153,111,157,397,179,85.5,65.6,109,55.6
"O=c1[nH]nc(Sc2ncc([N+](=O)[O-])s2)n1-c1ccc2c(c1)OCCO2 + CCc1ccc(CCOc2ccc(CC3SC(=O)NC3=O)cc2)nc1 [pioglitazone] (first compound 0.2 µM, partner dose 2 µM)",82.2,82.4,78.4,43.5,72.4,43.7,49.4,78.3,293,76.6,127,278,104,39.6,87.2,45.5
"O=C(Nc1cc(C(F)(F)F)cc(C(F)(F)F)c1)c1cc(Cl)ccc1O + NC(=O)Nc1cc(-c2cccc(F)c2)sc1C(=O)N[C@H]1CCCNC1 [AZD7762] (first compound 0.016 µM, partner dose 0.02 µM)",80.6,54.8,118,88.9,129,73.1,47.6,41.3,179,147,139,201,96.6,51.5,122,123
"O=c1[nH]nc(Sc2ncc([N+](=O)[O-])s2)n1-c1ccc2c(c1)OCCO2 + CN(C)S(=O)(=O)c1ccc2c(c1)/C(=C/c1cc3c([nH]1)CCCC3)C(=O)N2 [SU6656] (first compound 0.2 µM, partner dose 0.4 µM)",105,68.6,93.7,63.9,93.3,46.8,62.1,89.2,99.5,145,233,33.6,97.5,65.6,103,62.5
"CCCCCCCCCCCCCCCCCCOP(=O)([O-])OC1CC[N+](C)(C)CC1 [Perifosine] + O=c1cc(-c2cccc3c2Sc2ccccc2S3)oc(N2CCOCC2)c1 [KU55933] (first compound 0.4 µM, partner dose 1 µM)",167,43,266,140,149,46.5,133,76.6,81.6,158,132,93.1,118,104,102,148
"CC[C@]1(O)C[C@H]2CN(CCc3c([nH]c4ccccc34)[C@@](C(=O)OC)(c3cc4c(cc3OC)N(C=O)[C@H]3[C@@](O)(C(=O)OC)[C@H](OC(C)=O)[C@]5(CC)C=CCN6CC[C@]43[C@@H]65)C2)C1 [vincristine] + NC(=O)Nc1cc(-c2cccc(F)c2)sc1C(=O)N[C@H]1CCCNC1 [AZD7762] (first compound 0.0001 µM, partner dose 0.02 µM)",92.4,34,124,146,440,152,351,88.9,290,579,1240,512,92.9,134,212,75.1
"O=c1[nH]nc(Sc2ncc([N+](=O)[O-])s2)n1-c1ccc2c(c1)OCCO2 + CC(C)(C)c1cnc(CSc2cnc(NC(=O)C3CCNCC3)s2)o1 [SNS-032] (first compound 0.2 µM, partner dose 0.01 µM)",127,95.4,147,133,61.5,159,240,61.3,99.1,83.4,45.2,73.9,110,193,79.7,99.4
"O=C(/C=C/c1cccnc1)NCCCCC1CCN(C(=O)c2ccccc2)CC1 + Cc1cc(N2CCOCC2)cc2[nH]c(-c3c(NC[C@@H](O)c4cccc(Cl)c4)cc[nH]c3=O)nc12 [BMS536924] (first compound 0.01 µM, partner dose 0.2 µM)",688,49.1,38.3,239,142,480,76.2,38.1,139,226,262,160,105,71.1,125,233
"COc1cc([C@@H]2c3cc4c(cc3[C@@H](O[C@@H]3O[C@@H]5CO[C@@H](C)O[C@H]5[C@H](O)[C@H]3O)[C@H]3COC(=O)[C@H]23)OCO4)cc(OC)c1O [etoposide] + O=S(=O)(c1ccccc1)N(CC(F)(F)F)c1ccc(C(O)(C(F)(F)F)C(F)(F)F)cc1 [T0901317] (first compound 0.02 µM, partner dose 1.4 µM)",124,71.7,131,201,122,24.3,67,165,79.1,149,75.5,241,103,391,81.1,23.9
"Cc1cc(Nc2cc(N3CCN(C)CC3)nc(Sc3ccc(NC(=O)C4CC4)cc3)n2)n[nH]1 [Tozasertib] + O=S(=O)(c1ccccc1)N(CC(F)(F)F)c1ccc(C(O)(C(F)(F)F)C(F)(F)F)cc1 [T0901317] (first compound 0.006 µM, partner dose 1.4 µM)",159,182,117,114,116,100,119,85.4,120,86.5,80,125,108,476,145,526
"Cc1cc(Nc2cc(N3CCN(C)CC3)nc(Sc3ccc(NC(=O)C4CC4)cc3)n2)n[nH]1 [Tozasertib] + OCCn1cc(-c2cnc3nnn(Cc4ccc5ncccc5c4)c3n2)cn1 [PF04217903] (first compound 0.006 µM, partner dose 1 µM)",58.3,108,76.3,95.5,57.8,71.3,72.9,146,93.4,64,61.8,64.1,99.8,60.1,121,47.8
"CC[C@]1(O)C[C@H]2CN(CCc3c([nH]c4ccccc34)[C@@](C(=O)OC)(c3cc4c(cc3OC)N(C=O)[C@H]3[C@@](O)(C(=O)OC)[C@H](OC(C)=O)[C@]5(CC)C=CCN6CC[C@]43[C@@H]65)C2)C1 [vincristine] + NCC(=O)Nc1ccc(-n2nc(C(F)(F)F)cc2-c2ccc3c(ccc4ccccc43)c2)cc1 [OSU03012] (first compound 0.0001 µM, partner dose 1 µM)",90.7,392,64.7,518,130,150,134,243,197,53.7,284,7550,97.3,85.7,87.9,709
"CC[C@]1(O)C[C@H]2CN(CCc3c([nH]c4ccccc34)[C@@](C(=O)OC)(c3cc4c(cc3OC)N(C=O)[C@H]3[C@@](O)(C(=O)OC)[C@H](OC(C)=O)[C@]5(CC)C=CCN6CC[C@]43[C@@H]65)C2)C1 [vincristine] + Cc1ccc(NC(=O)c2cccc(N(C)C)c2)cc1NC(=O)c1ccc(O)cc1 [ZM336372] (first compound 0.0001 µM, partner dose 2 µM)",117,96.7,95,101,430,89.2,114,112,1320,161,417,199,118,198,146,278
"Cc1cn(-c2cc(NC(=O)c3ccc(C)c(Nc4nccc(-c5cccnc5)n4)c3)cc(C(F)(F)F)c2)cn1 [nilotinib] + C=CCn1c(=O)c2cnc(Nc3ccc(N4CCN(C)CC4)cc3)nc2n1-c1cccc(C(C)(C)O)n1 [MK1775] (first compound 0.2 µM, partner dose 0.02 µM)",81.8,97,64.3,88.3,84.2,70.8,112,71.1,159,41,214,35.8,110,60.7,94.7,146
"CC[C@]1(O)C[C@H]2CN(CCc3c([nH]c4ccccc34)[C@@](C(=O)OC)(c3cc4c(cc3OC)N(C=O)[C@H]3[C@@](O)(C(=O)OC)[C@H](OC(C)=O)[C@]5(CC)C=CCN6CC[C@]43[C@@H]65)C2)C1 [vincristine] + O=C(Nc1ccccc1)c1cc([N+](=O)[O-])ccc1Cl [GW9662] (first compound 0.0001 µM, partner dose 2 µM)",63.7,119,116,114,97.8,93.7,222,210,299,194,1140,46.4,97.8,327,163,210
"COc1cc([C@@H]2c3cc4c(cc3[C@@H](O[C@@H]3O[C@@H]5CO[C@@H](C)O[C@H]5[C@H](O)[C@H]3O)[C@H]3COC(=O)[C@H]23)OCO4)cc(OC)c1O [etoposide] + O=C(O)c1ccc(-c2c[nH]c3ncc(-c4ccccc4)cc23)cc1C1CCCC1 [GSK650394] (first compound 0.02 µM, partner dose 0.16 µM)",132,110,48,248,66.9,79.8,67.8,65.7,84.2,445,101,43.5,203,30.5,97.7,70.5

# As a working copy, part of the list above:
Compound,cleaved PARP positive nuclei fraction (MZ2-MEL) [%],cleaved PARP positive nuclei fraction (MeWo) [%],cleaved PARP positive nuclei fraction (RPMI7951) [%],cleaved PARP positive nuclei fraction (RVH-421) [%],cleaved PARP positive nuclei fraction (SkMel28) [%],cleaved PARP positive nuclei fraction (SkMel2) [%],cleaved PARP positive nuclei fraction (SkMel30) [%],cleaved PARP positive nuclei fraction (SkMel5) [%],cleaved PARP positive nuclei fraction (UACC257) [%],cleaved PARP positive nuclei fraction (UACC62) [%],cleaved PARP positive nuclei fraction (WM115) [%],cleaved PARP positive nuclei fraction (WM1716) [%],cleaved PARP positive nuclei fraction (WM1745) [%],cleaved PARP positive nuclei fraction (WM3526) [%],cleaved PARP positive nuclei fraction (WM3619) [%],cleaved PARP positive nuclei fraction (WM451Lu) [%]
"Cc1cc(Nc2cc(N3CCN(C)CC3)nc(Sc3ccc(NC(=O)C4CC4)cc3)n2)n[nH]1 [Tozasertib] + O=S(=O)(c1ccccc1)N(CC(F)(F)F)c1ccc(C(O)(C(F)(F)F)C(F)(F)F)cc1 [T0901317] (first compound 0.006 µM, partner dose 1.4 µM)",159,182,117,114,116,100,119,85.4,120,86.5,80,125,108,476,145,526
"Cc1cc(Nc2cc(N3CCN(C)CC3)nc(Sc3ccc(NC(=O)C4CC4)cc3)n2)n[nH]1 [Tozasertib] + OCCn1cc(-c2cnc3nnn(Cc4ccc5ncccc5c4)c3n2)cn1 [PF04217903] (first compound 0.006 µM, partner dose 1 µM)",58.3,108,76.3,95.5,57.8,71.3,72.9,146,93.4,64,61.8,64.1,99.8,60.1,121,47.8
